{"source": "paper PMC2672601", "binders": {"B1": {"name": "gephyrin (protein, UniProt Q8BUV3 1-769)", "chain": "MATEGMILTNHDHQIRVGVLTVSDSCFRNLAEDRSGINLKDLVQDPSLLGGTISAYKIVPDEIEEIKETLIDWCDEKELNLILTTGGTGFAPRDVTPEATKEVIEREAPGMALAMLMGSLNVTPLGMLSRPVCGIRGKTLIINLPGSKKGSQECFQFILPALPHAIDLLRDAIVKVKEVHDELEDLPSPPPPLSPPPTTSPHKQTEDKGVQCEEEEEEKKDSGVASTEDSSSSHITAAALAAKIPDSIISRGVQVLPRDTASLSTTPSESPRAQATSRLSTASCPTPKQIRRPDESKGVASRVGSLKARLPSCSSTYSVSEVQSRCSSKENILRASHSAVDITKVARRHRMSPFPLTSMDKAFITVLEMTPVLGTEIINYRDGMGRVLAQDVYAKDNLPPFPASVKDGYAVRAADGPGDRFIIGESQAGEQPTQTVMPGQVMRVTTGAPIPCGADAVVQVEDTELIRESDDGTEELEVRILVQARPGQDIRPIGHDIKRGECVLAKGTHMGPSEIGLLATVGVTEVEVNKFPVVAVMSTGNELLNPEDDLLPGKIRDSNRSTLLATIQEHGYPTINLGIVGDNPDDLLNALNEGISRADVIITSGGVSMGEKDYLKQVLDIDLHAQIHFGRVFMKPGLPTTFATLDIDGVRKIIFALPGNPVSAVVTCNLFVVPALRKMQGILDPRPTIIKARLSCDVKLDPRPEYHRCILTWHHQEPLPWAQSTGNQMSSRLMSMRSANGLLMLPPKTEQYVELHKGEVVDVMVIGRL"}}, "molecular_target": "T1, VGluRδ2 (fusion between Venus and the glutamate receptor delta2, GluRδ2) (UniProt Q61625)", "T1 sequence": "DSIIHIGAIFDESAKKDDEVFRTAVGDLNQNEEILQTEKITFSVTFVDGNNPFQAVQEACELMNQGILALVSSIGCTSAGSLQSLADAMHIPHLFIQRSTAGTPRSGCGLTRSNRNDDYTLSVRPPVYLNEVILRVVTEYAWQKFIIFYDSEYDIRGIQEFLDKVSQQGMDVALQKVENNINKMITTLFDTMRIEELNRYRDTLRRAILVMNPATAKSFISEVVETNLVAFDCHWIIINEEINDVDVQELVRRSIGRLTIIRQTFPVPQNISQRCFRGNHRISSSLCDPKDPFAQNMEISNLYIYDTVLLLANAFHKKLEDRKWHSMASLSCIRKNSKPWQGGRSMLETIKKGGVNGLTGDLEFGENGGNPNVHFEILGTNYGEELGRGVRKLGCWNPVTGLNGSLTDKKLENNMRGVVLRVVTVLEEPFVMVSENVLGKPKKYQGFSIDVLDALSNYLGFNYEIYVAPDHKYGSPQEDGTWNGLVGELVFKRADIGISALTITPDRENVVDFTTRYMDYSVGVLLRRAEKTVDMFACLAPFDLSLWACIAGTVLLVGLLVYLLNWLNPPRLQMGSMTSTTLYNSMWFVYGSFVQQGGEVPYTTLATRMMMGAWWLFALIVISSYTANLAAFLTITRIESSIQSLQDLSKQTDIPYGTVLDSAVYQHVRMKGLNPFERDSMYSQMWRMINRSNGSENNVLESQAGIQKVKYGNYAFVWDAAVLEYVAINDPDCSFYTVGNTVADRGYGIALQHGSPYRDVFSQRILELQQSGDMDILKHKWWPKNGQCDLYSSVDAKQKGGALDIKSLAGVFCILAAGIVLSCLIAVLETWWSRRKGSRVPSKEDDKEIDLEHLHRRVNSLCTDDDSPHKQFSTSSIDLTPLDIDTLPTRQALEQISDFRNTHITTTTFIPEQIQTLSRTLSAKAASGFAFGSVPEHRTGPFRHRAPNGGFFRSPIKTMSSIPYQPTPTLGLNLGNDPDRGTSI", "test": "affinity purification with mass spectrometry; same anti-GFP affinity purification of pooled synaptic fractions (samples pooled from 30 and from 50 Pcp2/VGluRδ2 cerebella); SDS-PAGE, in-gel trypsin digestion, MALDI QqTOF MS and MALDI-IT MS/MS; control isolates from Pcp2/eGFP mice", "note": "These are yes or no findings as the source states them, for the method shown. Binding seen in cells or lysates may run through a third protein. These calls come from enrichment with a bait or labelling near it, and not all partners need be listed. No binding means not detected with the bait. Sequences can lack the tags named with a protein.", "data": [{"binder": "B1", "values": [{"measurement": "binding", "value": "no binding"}]}]}
